PubChem BioAssay AID1259254 – NCATS – 2017
Assay: 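Gene knock-downs that lead to re-replication, shown by excess G2 DNA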 (primary screen). Cell system: human HCT116 colorectal cancer cells. Reagent: single siRNA against human genes. Time to read-out: 3 days. Measured: 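Nuclei stained with Hoechst and imaged; cell-cycle phase assigned by DNA content; G2 share scaled per plate, non-targeting siRNA 0%, GMNN siRNA 100%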. Scale: G2 robust z-score and G2 cells, % of GMNN control: higher = more G2 cells, more excess DNA replication. Active means: 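Active siRNAs have a G2 robust z of 5 or more median absolute deviations over the median, which in these data means about 38% or higher of GMNN control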.
The whole screen tested about 59,000 reagents; below is a random part of them. About 1,550 of them (2.6%) count as active. 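G2 share is only a proxy for re-replication; each gene was hit by three separate siRNAs, and active genes were retested.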 Unmarked entries are inactive. Reagents against one gene are numbered here. Further read-outs or replicates are left out here. The record does not give: the amount of reagent.

{"target":"TIGD3","reagent no.":1,"G2 robust z-score":-0.681,"G2 cells, % of GMNN control":-1.82}
{"target":"TIGD3","reagent no.":2,"G2 robust z-score":4.64,"G2 cells, % of GMNN control":35.6}
{"target":"TIGD3","reagent no.":3,"G2 robust z-score":-0.0712,"G2 cells, % of GMNN control":2.47}
{"target":"PRXL2B","reagent no.":1,"G2 robust z-score":-0.49,"G2 cells, % of GMNN control":-0.482}
{"target":"PRXL2B","reagent no.":2,"G2 robust z-score":-0.823,"G2 cells, % of GMNN control":-2.83}
{"target":"PRXL2B","reagent no.":3,"G2 robust z-score":-0.0825,"G2 cells, % of GMNN control":2.39}
{"target":"CCKAR","reagent no.":1,"G2 robust z-score":1.35,"G2 cells, % of GMNN control":12.5}
{"target":"CCKAR","reagent no.":2,"G2 robust z-score":0.207,"G2 cells, % of GMNN control":4.43}
{"target":"CCKAR","reagent no.":3,"G2 robust z-score":-1.01,"G2 cells, % of GMNN control":-4.13}
{"target":"TRIM49","reagent no.":1,"G2 robust z-score":-0.296,"G2 cells, % of GMNN control":0.882}
{"target":"TRIM49","reagent no.":2,"G2 robust z-score":2.62,"G2 cells, % of GMNN control":21.4}
{"target":"TRIM49","reagent no.":3,"G2 robust z-score":4.02,"G2 cells, % of GMNN control":31.3}
{"target":"ANTXR1","reagent no.":1,"G2 robust z-score":-0.45,"G2 cells, % of GMNN control":-0.198}
{"target":"ANTXR1","reagent no.":2,"G2 robust z-score":-0.204,"G2 cells, % of GMNN control":1.53}
{"target":"ANTXR1","reagent no.":3,"G2 robust z-score":-1.01,"G2 cells, % of GMNN control":-4.15}
{"target":"KLHDC2","reagent no.":1,"G2 robust z-score":"9.25 (active)","G2 cells, % of GMNN control":68}
{"target":"KLHDC2","reagent no.":2,"G2 robust z-score":-0.118,"G2 cells, % of GMNN control":2.14}
{"target":"KLHDC2","reagent no.":3,"G2 robust z-score":-0.41,"G2 cells, % of GMNN control":0.0853}
{"target":"RTN4R","reagent no.":1,"G2 robust z-score":1.46,"G2 cells, % of GMNN control":13.3}
{"target":"RTN4R","reagent no.":2,"G2 robust z-score":0.0307,"G2 cells, % of GMNN control":3.18}
{"target":"RTN4R","reagent no.":3,"G2 robust z-score":-1.3,"G2 cells, % of GMNN control":-6.16}
{"target":"TMEM154","reagent no.":1,"G2 robust z-score":0.763,"G2 cells, % of GMNN control":8.34}
{"target":"TMEM154","reagent no.":2,"G2 robust z-score":-0.472,"G2 cells, % of GMNN control":-0.351}
{"target":"TMEM154","reagent no.":3,"G2 robust z-score":-0.158,"G2 cells, % of GMNN control":1.86}
{"target":"RELL2","reagent no.":1,"G2 robust z-score":0.897,"G2 cells, % of GMNN control":9.28}
{"target":"RELL2","reagent no.":2,"G2 robust z-score":-0.439,"G2 cells, % of GMNN control":-0.122}
{"target":"RELL2","reagent no.":3,"G2 robust z-score":0.103,"G2 cells, % of GMNN control":3.69}
{"target":"NDUFA8","reagent no.":1,"G2 robust z-score":"8.07 (active)","G2 cells, % of GMNN control":59.7}
{"target":"NDUFA8","reagent no.":2,"G2 robust z-score":-0.483,"G2 cells, % of GMNN control":-0.431}
{"target":"NDUFA8","reagent no.":3,"G2 robust z-score":0.503,"G2 cells, % of GMNN control":6.51}

2 of these entries, set out differently.
RELL2 #2 — G2 robust z-score: -0.439; G2 cells, % of GMNN control: -0.122
RELL2 #3 — G2 robust z-score: 0.103; G2 cells, % of GMNN control: 3.69
